Primary screen of a compound library

The values are deposited in ChEMBL (CHEMBL3988442, “University of Dundee, Small-Polar-MMV Screening Library” (2021)).

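Viability assay of Plasmodium falciparum sporozoites; the read-out is not stated. The concentration is filed as 10 mM, unlikely as a test dose, so the dose is not known. The record gives no direction; compounds that gave an IC50 in retests scored well above the rest, so higher reads as lower viability. Strong results were mostly tested again. Size under these conditions: about 34,000 compounds, about 280 of them at 50% or above in at least one test.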

Results are given as percent effect. The controls that fix the scale are not given in the record; negative values are as filed. This is an unselected part of the compounds tested. Two or more numbers in one place are separate tests of the same structure; such repeats can differ widely.

| # | SMILES | Percent Effect |
|---|---|---|
| 1 | `CCS(=O)(=O)N1Cc2ncn(CC3CC3)c2C(COC)C1` (stereo unspecified) | -3.246 |
| 2 | `[H][C@@]12C[C@H](C)O[C@]1([H])CCN(C(=O)CCOC)C2` | -0.08591 |
| 3 | `Cc1noc(C)c1C(=O)NCC(c1ccsc1)N(C)C` (stereo unspecified) | -11.38 |
| 4 | `Cc1csc(N2CCCN(C(=O)C(C)n3ccnc3)CC2)n1` (stereo unspecified) | 3.425 |
| 5 | `Cc1ocnc1C(=O)N(C)[C@@H]1CCC[C@@H](N2CCCC2)[C@@H]1O` | 8.624 |
| 6 | `O=C1N(Cc2cccc(F)c2F)CCCC1(O)CNCc1ccccn1` (stereo unspecified) | -6.036 |
| 7 | `CCCN1CCC(c2nc3ccc(NCc4ccccc4)cn3n2)CC1.O=C(O)C(F)(F)F.O=C(O)C(F)(F)F` | -0.7666 |
| 8 | `Cc1ccc(N2CCc3ncnc(C)c3CC2)nn1` | 8.757 |
| 9 | `CCc1cc2c(N3CCCC(c4ccn[nH]4)C3)ncnc2s1` (stereo unspecified) | 9.298 |
| 10 | `Cc1ncc2c(n1)CN(Cc1nnc(-c3occc3C)o1)CC2` | 65.26 & 48.37 & 69.52 |
| 11 | `COCCCNC(=O)NCc1ccc(C)cc1` | -7.637 |
| 12 | `[H][C@]12CCN[C@@]1([H])CN(C(=O)CCC(C)C)C2` | -5.565 |
| 13 | `CC(c1nc(C(C)(C)C)no1)N1CCN(CC(=O)N2CCOCC2)CC1` (stereo unspecified) | -5.75 |
| 14 | `Cc1cccc(CN2CCC3(CCN(c4ncccn4)C3)C2=O)c1` (stereo unspecified) | 4.116 |
| 15 | `[H][C@@]12CCN(C(=O)C3CCSCC3)C[C@]1(COC)CCO2` | -2.641 |
| 16 | `Cc1occc1C(=O)N1CCn2c(Cn3cncn3)cnc2C1C` (stereo unspecified) | 22.26 |
| 17 | `O=C(O)C(F)(F)F.O=C(O)C(F)(F)F.[H][C@]12CCN(CC(=O)N(C)C)[C@@]1([H])CC[C@H](COCc1cccnc1)O2` | 5.469 |
| 18 | `CC(C)(C)CC(=O)N1CCCC2(CC(C(=O)Nc3ccccc3)=NO2)C1` (stereo unspecified) | 5 |
| 19 | `CCc1ccc(C2NCCc3cc4c(cc32)OCCO4)cc1` (stereo unspecified) | 5.263 |
| 20 | `Cc1ncsc1C(=O)NC1CCN(CC(=O)N(C)C(C)(C)C#N)CC1` | -0.2445 |
| 21 | `Cc1ccc(NC(=O)N2CCOC(C)C2)cc1Cl` (stereo unspecified) | -3.648 |
| 22 | `CC(C)c1nc(CN(C)C(=O)c2ccc3c(c2)OCC(=O)N3)cs1` | 9.077 |
| 23 | `COc1cc(C2(C(=O)N3CCCC(n4cncn4)C3)CC2)ccc1C` (stereo unspecified) | -6.733 |
| 24 | `COc1ncc(C2(O)CCN(Cc3cccs3)CC2)c(OC)n1.Cl` | -10.13 |
| 25 | `[H][C@@]12CCN(C3CCOCC3)C[C@]1([H])O[C@H](C(=O)N1CCOCC1)C2` | 0.2632 |
| 26 | `O=C(O)C(F)(F)F.[H][C@]12CCN(S(=O)(=O)C3CC3)[C@@]1([H])CCC(=O)N2CCN1CCCC1` | 13.31 |
| 27 | `Cc1cnn(C2CN(Cc3nc(C(C)(C)C)no3)C2)c1` | 7.032 |
| 28 | `O=C(O)C(F)(F)F.O=C(O)C(F)(F)F.[H][C@@]12CN(Cc3cccs3)C[C@@]1([H])N(Cc1cccnc1)C(=O)CO2` | -5.109 |
| 29 | `CCOc1ccnc(N2CCN(C(=O)c3cn[nH]c3C)CC2)n1` | 12.45 |
| 30 | `CCOC(=O)c1c(NC(=O)CN2CCN(C(C)=O)CC2)sc2c1CCC2` | -8.455 |
| 31 | `COCCCN1CCC(N(Cc2noc(C)n2)C(C)=O)C1` (stereo unspecified) | -12.74 |
| 32 | `O=C(O)C(F)(F)F.[H][C@]12CCN(Cc3ccco3)C[C@@]1([H])OCCN(C(=O)c1ccsc1)C2` | 3.485 |
| 33 | `CCNc1cc2c(nn1)CCN(C(=O)c1cc3ccccc3[nH]c1=O)C2` | -6.563 |
| 34 | `COc1ccc(CN[C@H]2CC[C@@]3(CCC(=O)N3)CC2)cc1.O=C(O)C(F)(F)F` | -2.053 |
| 35 | `[H][C@@]12C[C@H](C(=O)N(C)C)[C@@]([H])(CN(S(=O)(=O)c3ccccc3)C1)O2` | 6.061 |
| 36 | `CC[C@@H]1N(Cc2ccc(C)o2)CCC[C@]12CCC(=O)N2CCOC.O=C(O)C(F)(F)F` | 21.32 |
| 37 | `O=C(O)C(F)(F)F.[H][C@@]12CCCO[C@]1([H])[C@@H](OC)CN2CC1CC1` | -6.582 |
| 38 | `CN(C)c1ccc(CC2CCN(c3cnccn3)CC2)nn1` | -3.772 |
| 39 | `CNC(=O)CS(=O)(=O)C1CCN(S(=O)(=O)C2CC2)CC1` | -1.299 |
| 40 | `COc1ccc(C[C@H]2CN(C3CCOCC3)CC[C@@H]2OCC2CC2)cc1.O=C(O)C(F)(F)F` | 2.224 |
| 41 | `Cc1nccn1CC1CCCN(S(=O)(=O)c2cnn(C)c2)C1` (stereo unspecified) | -8.783 |
| 42 | `Cc1ccccc1SC1CCN(C(=O)CCCS(N)(=O)=O)CC1` | -3.388 |
| 43 | `COc1ccc(-c2c(C)nn3c(=N)c(C#N)n[nH]c23)cc1OC` | -0.09158 |
| 44 | `O=C(c1cc2c(s1)CCC2)N1CCCC1Cn1cccn1` (stereo unspecified) | 2.314 |
| 45 | `O=C(NCC1Cn2nnc(-c3ccoc3)c2CO1)c1ccc[nH]1` (stereo unspecified) | -5.109 |
| 46 | `CCc1ccc(OCCN(C)C(=O)c2ccncc2Cl)cc1` | -14.79 |
| 47 | `Cn1cnnc1S(=O)(=O)C1CCN(S(=O)(=O)c2ccc(F)c(Cl)c2)CC1` | -19.24 |
| 48 | `CC(C)(C)c1nc(CNc2ccccc2SCCC(N)=O)cs1` | -3.823 & 5.496 |
| 49 | `O=C(O)C(F)(F)F.[H][C@]12CCC[C@@]1(COCc1ccccn1)CN(C(=O)c1ccc(F)cc1)C2` | -8.457 |
| 50 | `CCc1cccc2cc(CNCCCN3CCOCC3)c(=O)[nH]c12` | 8.661 |
| 51 | `COC(=O)c1cccn1C1CCN(C(=O)c2cc(F)ccc2F)CC1` | -14.06 |
| 52 | `Cc1ccc(-c2nc(C(=O)N3CCCC(C(N)=O)C3)cs2)c(C)c1` (stereo unspecified) | -11.17 |
| 53 | `[H][C@@]12CN(C(=O)N(C)C)C[C@]1([H])C(=O)N(Cc1cccc(F)c1)C2` | -10.51 |
| 54 | `Cc1noc(C)c1C(=O)N1CCCN(Cc2nccn2C(C)C)CC1` | 5.112 |
| 55 | `CCN(CC)Cc1cn2c(n1)CN(C(=O)c1cnccn1)CC2.O=C(O)C(F)(F)F` | -16 |
| 56 | `Cc1cnc(CN(C)C2CCCN(Cc3noc(C4CC4)n3)C2)cn1` (stereo unspecified) | -4.937 |
| 57 | `Cc1cc(CCC(N)=O)cc(C2CCCN2Cc2ccccn2)n1` (stereo unspecified) | 5.542 |
| 58 | `Cc1csc(N2CCN(C(=O)CCc3ccccn3)CC2)n1` | -2.08 |
| 59 | `O=C(NCCn1ccnc1)N1CCCC1c1ccsc1` (stereo unspecified) | 14.01 |
| 60 | `CN1C[C@@H](N)C[C@H]1c1nc(-c2ccc3c(c2)OCO3)no1` | -23.3 & -21.21 |
| 61 | `CNC(=O)C1(CCCc2cnccn2)CCN1CCc1ccccc1` (stereo unspecified) | 6.484 |
| 62 | `Cc1cc(C)c(CNC(=O)NCc2cc(F)cc(F)c2)c(=O)[nH]1` | -6.014 |
| 63 | `Cc1ccoc1C(=O)NC1CCN(Cc2csc3c(F)cccc23)CC1` | -7.16 |
| 64 | `Cc1nc(C2CCCN2CC(=O)NCCc2ccc(Cl)cc2)no1` (stereo unspecified) | 7.01 |
| 65 | `Cc1ccccc1CNC(=O)c1ccccc1-n1cnc(CN)c1` | 9.594 |
| 66 | `CNc1cc(C)nc(N2CCC3(CC2)[C@H](O)C[C@@H]3OC)n1` | -11.1 |
| 67 | `Cc1ncoc1C(=O)N1CCCC(c2ccc3c(N)nn(C)c3n2)C1` (stereo unspecified) | 4.876 |
| 68 | `c1ccc(CNC2CCc3ncnn3C2)nc1` (stereo unspecified) | 9.662 |
| 69 | `CCn1c(C)cc(C(=O)N2CCCC(C(=O)c3nccn3C)C2)c1C` (stereo unspecified) | -9.282 |
| 70 | `Oc1cc(C2CCCCN2C2CCCC2)nc(-c2ccncc2)n1` (stereo unspecified) | 2.906 |
| 71 | `Cc1ncc2c(n1)CN(CC(=O)Nc1nnc(C)s1)CC2` | -3.142 |
| 72 | `CCCS(=O)(=O)NC1CCc2c(ccc(=O)n2CC2CC2)C1` (stereo unspecified) | 1.649 |
| 73 | `Cn1ncc(Cl)c1C(=O)NCCN1CCC(O)(c2ccc(F)cc2)CC1` | 7.41 |
| 74 | `Cc1nc(-c2nc(C(=O)N(C)C)c3ccccn23)cn1C(C)C` | 38.79 & 23.46 & 42.96 |
| 75 | `O=C(O)C(F)(F)F.[H][C@@]12CCN(CC(=O)NC)C[C@]1([H])CN(C(=O)c1ccccc1F)C2` | 17.28 |
| 76 | `CC1(C2CCN(CCCC(=O)O)CC2)CN(Cc2ccccc2)C(=O)O1` (stereo unspecified) | 2.836 |
| 77 | `Cl.NCC(=O)N1CCCC1c1nccnc1Nc1ncccn1` (stereo unspecified) | -1.339 |
| 78 | `C[C@@H]1CN2C[C@H](O)CC2CN1Cc1ccc2nccnc2c1` (stereo partly specified) | 3.325 |

Some entries from above, unchanged:

SMILES	Percent Effect
Cc1cnc(CN(C)C2CCCN(Cc3noc(C4CC4)n3)C2)cn1 (stereo unspecified)	-4.937
O=C(O)C(F)(F)F.O=C(O)C(F)(F)F.[H][C@@]12CN(Cc3cccs3)C[C@@]1([H])N(Cc1cccnc1)C(=O)CO2	-5.109
Cl.NCC(=O)N1CCCC1c1nccnc1Nc1ncccn1 (stereo unspecified)	-1.339
O=C(O)C(F)(F)F.O=C(O)C(F)(F)F.[H][C@]12CCN(CC(=O)N(C)C)[C@@]1([H])CC[C@H](COCc1cccnc1)O2	5.469
CCN(CC)Cc1cn2c(n1)CN(C(=O)c1cnccn1)CC2.O=C(O)C(F)(F)F	-16